The other results are listed elsewhere or left out. Further columns of the screen follow, without active or inactive calls. Compounds called inactive in the main read-out are mostly missing here. Words in brackets tell the shape of the fitted curve; partial curves, single points and poor fits give uncertain potencies.
Experiment: qHTS Assay for Lipid Storage Modulators in Drosophila S3 Cells;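 for cell number change: cells counted by Cell Tracker Red CMTPX staining in the red channel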
Conditions: BODIPY lipid droplet fluorescence, 18-24 h; for cell number change: measured here: cell count max response, cells fed with added oleic acid
Outline: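 Laser-scanning cytometry quantifies lipid droplet accumulation (500–530 nm total intensity; droplet/cell object ratio) in oleic acid-fed (400 uM added) Drosophila S3 cells treated with a concentration series. 20 uM Triacsin C defined 100% inhibition.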

[1] = measured here: cell number channel AC50, cells fed with added oleic acid
[2] = measured here: lipid fluorescence (Fed channel) AC50, cells fed with added oleic acid

Compound | cell number change [%] | AC50 [1] | AC50 [2]
CC(NC(=O)Nc1cccc([N+](=O)[O-])c1)(C(F)(F)F)C(F)(F)F | -52.5 | 8.2 µM [falling, partial curve] | 
O=C(CSc1n[nH]c(=O)n1C1CC1)c1c[nH]c2ccccc12 | 6.38 |  | 
O=C(CSc1nc2ccccc2c(=O)n1-c1ccc(SC(F)F)cc1)Nc1ccc(N2CCOCC2)cc1 | -34.6 | 18.4 µM [falling, single point] | 
O=C(Nc1ccc(-c2cnco2)cc1)c1ccc(Cl)cc1 | 9.25 | 0.92 µM [falling, full curve, poor fit] | 0.82 µM [falling, full curve]
CCN(CC)S(=O)(=O)c1ccc(C(=O)OCC(=O)NCc2ccco2)cc1 | 5.91 |  | 
COc1cc(C[C@@H]2C(=O)OC[C@H]2Cc2ccc(OC)c(OC)c2)ccc1O | -48.3 | 6.51 µM [falling, partial curve] | 0.411 µM [falling, full curve]
O=C(c1cnn2c(C(F)F)cc(C3CC3)nc12)N1CCCC1 |  | 0.731 µM [rising, full curve, poor fit] | 18.4 µM [falling, single point]
Cc1ccc(/C=C/C(=O)OCC(=O)NCc2ccc(Cl)cc2)o1 | -32.5 | 2.91 µM [falling, full curve] | 25.9 µM [falling, single point]
COc1cc(Cl)c(CN2CCCC(CO)(Cc3ccccc3F)C2)cc1OC (stereo not drawn) | -9.34 |  | 
COc1ccc(CCNC(=O)CNC(=O)c2ccc3c(c2)OCO3)cc1OC | 21.4 |  | 20.6 µM [rising, partial curve]
c1ccc(Nc2nc(N3CCNCC3)nc(N3CCOCC3)n2)cc1 | 24.9 |  | 9.2 µM [rising, partial curve, poor fit]
OCCCNCc1ccc(N(c2ccccc2)c2ccccc2)cc1 | 24.8 |  | 
Cc1cc2c(cc1S(=O)(=O)Nc1ccc(OC(F)(F)F)cc1)OCC(=O)N2 | -2.06 |  | 29.1 µM [falling, single point]
O=C(COC(=O)c1cccnc1Cl)NCC1CCCO1 (stereo not drawn) | -15.3 |  | 
Cc1ccc(S(=O)(=O)Nc2nc(C)c(C)s2)cc1 | -4.31 |  | 29.1 µM [rising, single point]
C=CCn1c(SCC(=O)NCc2ccco2)nnc1C1CCCCC1 |  | 0.13 µM [rising, full curve, poor fit] | 
O=C(Oc1ccccc1/C=C\C(=O)c1cc2ccccc2o1)c1ccccc1 |  |  | 18.4 µM [falling, partial curve]
O=C(NCCc1ccc(Cl)cc1)C1CCC(CNc2c(N3CCCCC3)c(=O)c2=O)CC1 (stereo not drawn) | 20.4 |  | 5.8 µM [rising, partial curve]
C=CCSc1ncccc1C(=O)NCCc1ccccc1 | 1.42 |  | 29.1 µM [falling, single point]
CCCCCN=Cc1c(C)[nH]n(-c2nc3ccccc3s2)c1=O | 7.82 |  | 3.26 µM [rising, single point]

Grouped by structure: the entries above with an aryl thioether with sulfur outside any ring
Compound | cell number change [%] | AC50 [1] | AC50 [2]
O=C(CSc1n[nH]c(=O)n1C1CC1)c1c[nH]c2ccccc12 | 6.38 |  | 
O=C(CSc1nc2ccccc2c(=O)n1-c1ccc(SC(F)F)cc1)Nc1ccc(N2CCOCC2)cc1 | -34.6 | 18.4 µM [falling, single point] | 
C=CCn1c(SCC(=O)NCc2ccco2)nnc1C1CCCCC1 |  | 0.13 µM [rising, full curve, poor fit] | 
C=CCSc1ncccc1C(=O)NCCc1ccccc1 | 1.42 |  | 29.1 µM [falling, single point]

More records

Compound | cell number change [%] | AC50 [1] | AC50 [2]
COc1ccc(/C=N/Nc2nc(-c3ccc(Cl)cc3)cc(C(F)(F)F)n2)c(OC)c1 | 13 |  | 0.058 µM [rising, full curve, poor fit]
COC(=O)c1ccc(N=Nc2c(C)[nH]n(-c3ccccc3)c2=O)cc1 | -50.3 | 18.4 µM [falling, partial curve, poor fit] | 
Cc1ccccc1-c1nnnn1C1CCS(=O)(=O)C1 (stereo not drawn) | -26.2 |  | 
N#Cc1ccccc1NC(=O)C(=O)NCC1CCCN1S(=O)(=O)c1cccs1 (stereo not drawn) | 29.4 | 4.61 µM [rising, full curve, poor fit] | 
COc1ccc(C2=NN(C(=O)c3ccco3)C(c3cc4ccccc4nc3Cl)C2)cc1 (stereo not drawn) | 10 |  | 0.411 µM [rising, full curve]
C#CCOCCOCCOCCNc1nc(N2CCN(C(=O)[C@H](CCCCN)n3cc([C@@H](N)CC(C)C)nn3)CC2)nc(N2CCN(C(=O)[C@H](Cc3ccc(O)cc3)n3cc([C@@H](N)CC(C)C)nn3)CC2)n1 | -11.6 | 0.0651 µM [falling, full curve, poor fit] | 3.66 µM [falling, full curve, poor fit]
CCOc1ccc(-c2c(C)n([O-])c3c([n+]2=O)CCCC3)cc1 | -12.3 |  | 1.3 µM [falling, full curve, poor fit]
COc1ccc2nc(Nc3nc(CSc4nnnn4-c4ccccc4)cc(=O)[nH]3)nc(C)c2c1 | 56.8 | 1.3 µM [rising, full curve] | 0.411 µM [rising, full curve]
CC(C)c1nc2ccc(Br)cn2c1NC1CCCC1 | -21.3 | 2.59 µM [falling, single point] | 0.291 µM [falling, partial curve, poor fit]
CCn1c(SCC(=O)NCc2ccco2)nnc1-c1ccncc1 | -11.5 |  | 0.82 µM [falling, full curve, poor fit]
COc1ccc(N(C(=O)c2snc(C(N)=O)c2N)C(C(=O)NC2CCCC2)c2ccc3ncccc3c2)cc1 (stereo not drawn) | -11.1 | 4.61 µM [falling, single point] | 
O=C(NNC(=O)c1ccccc1C(=O)O)c1ccc(O)cc1 | 0.551 |  | 
COC1CCN(C(=O)C2CCC(=O)N(CCc3cccc(F)c3)C2)CC1 (stereo not drawn) | 17.9 | 6.51 µM [rising, single point] | 0.082 µM [rising, full curve]
O=C(O)c1cc(-c2ccc(Cl)cc2)n(-c2ccccc2)n1 | -54.9 | 14.6 µM [falling, partial curve, poor fit] | 4.11 µM [falling, single point]
CC(C(=O)Nc1cc(C(F)(F)F)ccc1N1CCOCC1)N1C(=O)C2CC=CCC2C1=O (stereo not drawn) |  |  | 0.731 µM [falling, full curve, poor fit]
Cc1ccc(-c2nc(SCC(=O)Nc3cc(S(=O)(=O)N4CCCCC4)ccc3Cl)n[nH]2)cc1 | 19.6 |  | 8.2 µM [rising, partial curve, poor fit]
CNC(=S)N/N=C/c1ccco1 | 13.1 |  | 0.82 µM [rising, full curve, poor fit]
Cc1csc(=O)n1CCC(=O)OCc1nnc(-c2ccccc2)o1 | 26.5 | 1.64 µM [rising, full curve, poor fit] | 
OCCCN1c2ccccc2Nc2nnc(-c3ccccc3)cc21 | 12.2 |  | 29.1 µM [falling, single point]
COc1ccc(OC)c2nc(-c3ccncc3)ccc12 | 13.2 |  | 5.8 µM [rising, full curve, poor fit]

Compound | cell number change [%] | AC50 [1] | AC50 [2]
Cc1ccc(C(=O)OCCN(C)Cc2ccccc2)cc1 | 5.37 |  | 0.92 µM [rising, full curve, poor fit]
Cc1ccc(NC(=S)NNC(=O)c2cn(C)nc2C)cc1 | 2.96 |  | 0.517 µM [rising, full curve, poor fit]
CCCCc1nnc(SCCSc2nnc(CCCC)n2N)n1N | -9.06 |  | 0.92 µM [falling, partial curve]
COCCn1c(SCc2nc3cc(OC)c(OC)cc3c(=O)[nH]2)nnc1-c1ccncc1 | 30.2 | 16.4 µM [rising, single point] | 
CO/N=C\Cc1oc(=O)c(NC(=O)c2ccccc2)cc1C(=O)OC |  | 5.8 µM [rising, single point] | 0.231 µM [rising, full curve, poor fit]
CCOC(=O)Nc1nnc(-c2ccc(OC)c(OC)c2)s1 | 2.43 |  | 6.51 µM [rising, single point]
CC(C)c1ccc(OCC(=O)Nc2ccc(S(=O)(=O)Nc3ccccn3)cc2)cc1 | -29.5 |  | 
CCCCSc1nc2c(c(C(F)(F)F)c1C#N)CCC2 | 20.6 |  | 0.58 µM [falling, single point]
CC(=O)c1cccc(Oc2cc(NN3CCCCC3)c([N+](=O)[O-])cc2[N+](=O)[O-])c1 | 12.3 | 0.082 µM [rising, full curve, poor fit] | 
O=C1CC(N2CCN(c3ccccc3)CC2)C(=O)N1c1ccc(Cl)cc1 (stereo not drawn) | 4.74 |  | 29.1 µM [rising, single point]
COc1ccccc1NC(=O)c1ccccc1NS(=O)(=O)N1CCCC1 | 3.17 |  | 0.651 µM [rising, full curve]
CC(C)(C)NC(=O)c1ccc(COCC(F)(F)F)o1 | 33.6 | 23.1 µM [rising, single point] | 1.84 µM [falling, partial curve]
Cc1cc(SCC(=O)N/N=C/c2ccc(O)c(O)c2O)c(C)cc1Br | -2.88 |  | 3.26 µM [rising, single point]
CCN1C(=O)N(CC)C2C1N(CO)C(=O)N2CO (stereo not drawn) |  |  | 0.58 µM [rising, single point]
CCOC(=O)c1ccc(NC(=O)c2cc(S(=O)(=O)N3CCOCC3)cn2C)cc1 | 7.2 |  | 
COc1ccccc1NS(=O)(=O)c1cccc(C(=O)N/N=C(\C)c2cccnc2)c1 | 6.64 |  | 0.291 µM [rising, partial curve, poor fit]
O=C1NN(c2cccc(Br)c2)C(=O)/C1=C\c1ccc(O)cc1 | -24.3 | 4.11 µM [falling, full curve, poor fit] | 6.51 µM [falling, partial curve, poor fit]
CN1CCN(CCOCCOc2ccc(Br)cc2Cl)CC1 | 11.1 |  | 0.058 µM [rising, full curve, poor fit]

Random excerpt: 2 compounds from above.
Compound | cell number change [%] | AC50 [1] | AC50 [2]
Cc1csc(=O)n1CCC(=O)OCc1nnc(-c2ccccc2)o1 | 26.5 | 1.64 µM [rising, full curve, poor fit] | 
O=C(NCCc1ccc(Cl)cc1)C1CCC(CNc2c(N3CCCCC3)c(=O)c2=O)CC1 (stereo not drawn) | 20.4 |  | 5.8 µM [rising, partial curve]
